Values of other authors as cited in patent publication US8029799B2, “Use of thymosin alpha 1 for preparing a medicament for the treatment of stage IV malignant melanoma” (SciClone Pharmaceuticals, Inc., priority 2006, dated 2011).
At least one structure is not confirmed: it was looked up by name or label, or the drawing left a doubt.

System: metastatic melanoma
Details: cited from earlier work

CN(C)/N=N/c1[nH]cnc1C(N)=O [DTIC, Dacarbazine]
duration of responses (short-lived) (metastatic melanoma, DTIC): three to six | effect of responses on patients' overall survival (metastatic melanoma, DTIC): no evidence that these responses have any effect | actual overall responses to DTIC (metastatic melanoma, most recent publications (J Clin Oncol, ASCO 2004)): 5.5-6.8% | DTIC efficacy found in literature (population similar to 16% M1a, 25% M1b, 59% M1c): 5%
